No constants are given. Whether binding was seen depends on the method and setting. In cells and extracts the contact can be indirect. Some entries that bind do so weakly or less than the wild type.
Columns and labels:
MycGFP-CENP-E (human) [1] = target: MycGFP-CENP-E (human) (UniProt Q02224); test: co-IP; C-Myc antibody 24 h at 4 °C, then Protein A/G agarose 2 h at 4 °C, with lysates of HEK 293T cells expressing MycGFP-CENP-E; blot for BubR1; control cells and CKAP5-depleted cells expressing CKAP5^853-2032-GFP
MycGFP-CENP-E (human) [2] = target: MycGFP-CENP-E (human) (UniProt Q02224); test: co-IP; GFP Trap agarose (GFP nanobody-coated beads), 4 h at 4 °C, with lysates of mitotic synchronized HEK 293T cells expressing MycGFP-CENP-E; lysis buffer 20 mM Tris, 50 mM NaCl, 1 mM EGTA, 1% Triton X 100; blot for BubR1; cells with control or CKAP5 depletion, with or without 0.25 µM okadaic …

Chains of the proteins cited; added tags and fusions are not shown.
UniProt Q02224: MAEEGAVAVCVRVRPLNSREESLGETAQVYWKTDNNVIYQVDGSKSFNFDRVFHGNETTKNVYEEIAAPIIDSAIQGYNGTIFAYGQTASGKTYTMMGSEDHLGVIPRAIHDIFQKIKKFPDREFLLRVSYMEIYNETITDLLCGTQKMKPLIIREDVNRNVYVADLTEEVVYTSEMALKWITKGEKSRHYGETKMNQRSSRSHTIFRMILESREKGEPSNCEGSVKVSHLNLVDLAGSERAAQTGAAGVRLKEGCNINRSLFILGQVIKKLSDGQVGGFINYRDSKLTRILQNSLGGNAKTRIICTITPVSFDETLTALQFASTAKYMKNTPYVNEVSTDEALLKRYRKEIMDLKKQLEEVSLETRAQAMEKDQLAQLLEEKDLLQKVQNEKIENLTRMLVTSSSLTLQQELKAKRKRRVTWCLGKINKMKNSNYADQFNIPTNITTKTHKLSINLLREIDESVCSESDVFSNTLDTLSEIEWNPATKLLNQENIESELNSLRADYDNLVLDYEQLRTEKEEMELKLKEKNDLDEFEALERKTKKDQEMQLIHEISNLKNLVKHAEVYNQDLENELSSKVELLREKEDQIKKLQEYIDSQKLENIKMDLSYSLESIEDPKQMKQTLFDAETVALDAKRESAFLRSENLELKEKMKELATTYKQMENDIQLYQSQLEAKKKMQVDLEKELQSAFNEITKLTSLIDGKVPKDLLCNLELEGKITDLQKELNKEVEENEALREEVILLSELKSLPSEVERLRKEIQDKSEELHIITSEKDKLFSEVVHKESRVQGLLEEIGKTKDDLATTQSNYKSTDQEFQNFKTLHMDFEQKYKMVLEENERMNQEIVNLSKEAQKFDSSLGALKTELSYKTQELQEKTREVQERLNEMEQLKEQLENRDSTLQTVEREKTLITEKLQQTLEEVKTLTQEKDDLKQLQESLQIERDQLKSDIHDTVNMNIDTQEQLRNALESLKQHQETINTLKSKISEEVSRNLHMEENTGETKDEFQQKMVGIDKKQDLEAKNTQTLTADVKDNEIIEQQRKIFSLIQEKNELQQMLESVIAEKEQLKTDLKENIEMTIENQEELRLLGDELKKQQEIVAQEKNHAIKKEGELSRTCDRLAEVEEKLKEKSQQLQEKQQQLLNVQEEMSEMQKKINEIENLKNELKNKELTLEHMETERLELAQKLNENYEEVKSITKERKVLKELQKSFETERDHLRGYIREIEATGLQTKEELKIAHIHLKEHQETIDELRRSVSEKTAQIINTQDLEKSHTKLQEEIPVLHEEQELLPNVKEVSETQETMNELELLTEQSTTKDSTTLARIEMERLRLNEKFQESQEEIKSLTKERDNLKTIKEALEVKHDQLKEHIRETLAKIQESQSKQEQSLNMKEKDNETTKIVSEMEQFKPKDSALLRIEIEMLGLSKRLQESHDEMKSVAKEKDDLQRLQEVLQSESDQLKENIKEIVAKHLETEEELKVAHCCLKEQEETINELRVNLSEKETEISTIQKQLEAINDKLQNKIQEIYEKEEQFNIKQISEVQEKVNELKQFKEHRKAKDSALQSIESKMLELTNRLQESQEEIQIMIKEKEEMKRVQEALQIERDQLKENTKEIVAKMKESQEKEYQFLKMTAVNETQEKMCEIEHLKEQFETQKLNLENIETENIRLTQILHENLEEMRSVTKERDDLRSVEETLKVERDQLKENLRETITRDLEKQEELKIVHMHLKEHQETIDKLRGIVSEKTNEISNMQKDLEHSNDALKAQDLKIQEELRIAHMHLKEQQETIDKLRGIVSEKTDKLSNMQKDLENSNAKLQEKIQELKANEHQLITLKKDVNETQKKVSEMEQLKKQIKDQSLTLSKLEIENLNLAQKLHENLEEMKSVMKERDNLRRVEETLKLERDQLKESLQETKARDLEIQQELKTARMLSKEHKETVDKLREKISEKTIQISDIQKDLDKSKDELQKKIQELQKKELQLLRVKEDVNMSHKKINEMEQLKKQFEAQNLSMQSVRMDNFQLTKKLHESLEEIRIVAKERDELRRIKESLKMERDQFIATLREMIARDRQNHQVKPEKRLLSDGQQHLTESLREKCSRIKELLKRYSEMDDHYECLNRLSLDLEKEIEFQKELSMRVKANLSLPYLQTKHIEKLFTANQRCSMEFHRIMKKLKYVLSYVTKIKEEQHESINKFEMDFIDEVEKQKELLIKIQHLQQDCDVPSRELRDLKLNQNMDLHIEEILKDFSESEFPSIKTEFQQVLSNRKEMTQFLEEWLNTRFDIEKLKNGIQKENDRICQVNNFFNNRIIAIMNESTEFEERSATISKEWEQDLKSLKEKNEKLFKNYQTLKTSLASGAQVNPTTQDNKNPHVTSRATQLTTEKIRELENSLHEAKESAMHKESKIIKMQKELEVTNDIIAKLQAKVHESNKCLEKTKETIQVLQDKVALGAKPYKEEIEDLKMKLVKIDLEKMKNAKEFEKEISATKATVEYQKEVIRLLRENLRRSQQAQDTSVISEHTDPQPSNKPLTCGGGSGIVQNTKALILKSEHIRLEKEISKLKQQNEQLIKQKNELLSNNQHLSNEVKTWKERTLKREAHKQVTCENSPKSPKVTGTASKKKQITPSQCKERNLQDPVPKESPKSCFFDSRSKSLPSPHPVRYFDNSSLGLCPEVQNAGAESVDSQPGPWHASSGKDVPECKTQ
UniProt O60566: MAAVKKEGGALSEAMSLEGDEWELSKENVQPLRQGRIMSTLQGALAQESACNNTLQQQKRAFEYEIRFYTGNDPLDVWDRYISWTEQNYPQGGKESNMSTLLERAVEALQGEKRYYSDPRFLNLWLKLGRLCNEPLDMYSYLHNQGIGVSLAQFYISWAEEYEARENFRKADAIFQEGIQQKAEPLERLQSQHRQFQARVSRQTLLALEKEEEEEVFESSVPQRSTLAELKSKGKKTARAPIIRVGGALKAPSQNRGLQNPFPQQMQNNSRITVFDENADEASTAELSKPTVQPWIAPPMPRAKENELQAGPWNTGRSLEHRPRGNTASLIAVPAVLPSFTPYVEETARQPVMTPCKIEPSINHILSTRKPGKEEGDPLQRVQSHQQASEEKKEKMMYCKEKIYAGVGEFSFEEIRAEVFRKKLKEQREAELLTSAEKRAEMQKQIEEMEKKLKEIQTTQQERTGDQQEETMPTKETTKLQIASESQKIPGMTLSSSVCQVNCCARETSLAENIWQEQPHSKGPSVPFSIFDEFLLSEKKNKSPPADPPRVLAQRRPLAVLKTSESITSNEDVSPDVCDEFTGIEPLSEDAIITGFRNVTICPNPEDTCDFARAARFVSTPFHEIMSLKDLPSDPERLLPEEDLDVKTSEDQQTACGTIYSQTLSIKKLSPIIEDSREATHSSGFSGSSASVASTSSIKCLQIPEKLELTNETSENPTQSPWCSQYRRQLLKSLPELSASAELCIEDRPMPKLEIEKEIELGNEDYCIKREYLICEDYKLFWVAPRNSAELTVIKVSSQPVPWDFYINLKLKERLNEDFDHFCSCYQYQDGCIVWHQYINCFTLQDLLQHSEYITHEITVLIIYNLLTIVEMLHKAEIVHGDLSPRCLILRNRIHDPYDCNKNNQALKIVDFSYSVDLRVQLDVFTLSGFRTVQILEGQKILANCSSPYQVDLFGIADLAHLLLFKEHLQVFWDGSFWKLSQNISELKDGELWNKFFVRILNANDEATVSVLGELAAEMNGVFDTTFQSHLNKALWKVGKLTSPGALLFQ

Q: For BubR1 (from UniProt O60566 1-1050), which binding (MycGFP-CENP-E (human) [1]) is on record?
A: binds

Q: And the binding (MycGFP-CENP-E (human) [2])?
A: binds
